In the supplement of paper PMC12067093, “Discovery and optimisation of a covalent ligand for TRIM25 and its application to targeted protein ubiquitination” (Chemical Science, 2025):
The other results are listed elsewhere or left out.

Protein sequences, listed by entry. Tags and fused reporters are not part of them. Lines headed by an entry give the natural chain unless they say otherwise; changes in a name come on top.
UniProt Q9BTD8: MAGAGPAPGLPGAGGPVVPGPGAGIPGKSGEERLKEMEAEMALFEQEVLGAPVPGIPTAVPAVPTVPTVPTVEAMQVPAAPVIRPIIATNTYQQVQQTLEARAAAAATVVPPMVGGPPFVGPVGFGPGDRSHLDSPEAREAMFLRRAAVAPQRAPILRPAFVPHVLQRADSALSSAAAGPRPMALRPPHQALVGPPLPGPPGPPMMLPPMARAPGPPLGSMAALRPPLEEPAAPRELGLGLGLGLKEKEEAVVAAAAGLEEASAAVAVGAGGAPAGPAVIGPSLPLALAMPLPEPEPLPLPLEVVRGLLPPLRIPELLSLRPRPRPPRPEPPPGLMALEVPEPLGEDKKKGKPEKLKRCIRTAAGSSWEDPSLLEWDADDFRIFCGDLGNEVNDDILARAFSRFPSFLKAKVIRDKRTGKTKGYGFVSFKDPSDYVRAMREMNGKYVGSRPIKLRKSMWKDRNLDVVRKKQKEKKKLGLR
UniProt Q15291, whole entry, looked up: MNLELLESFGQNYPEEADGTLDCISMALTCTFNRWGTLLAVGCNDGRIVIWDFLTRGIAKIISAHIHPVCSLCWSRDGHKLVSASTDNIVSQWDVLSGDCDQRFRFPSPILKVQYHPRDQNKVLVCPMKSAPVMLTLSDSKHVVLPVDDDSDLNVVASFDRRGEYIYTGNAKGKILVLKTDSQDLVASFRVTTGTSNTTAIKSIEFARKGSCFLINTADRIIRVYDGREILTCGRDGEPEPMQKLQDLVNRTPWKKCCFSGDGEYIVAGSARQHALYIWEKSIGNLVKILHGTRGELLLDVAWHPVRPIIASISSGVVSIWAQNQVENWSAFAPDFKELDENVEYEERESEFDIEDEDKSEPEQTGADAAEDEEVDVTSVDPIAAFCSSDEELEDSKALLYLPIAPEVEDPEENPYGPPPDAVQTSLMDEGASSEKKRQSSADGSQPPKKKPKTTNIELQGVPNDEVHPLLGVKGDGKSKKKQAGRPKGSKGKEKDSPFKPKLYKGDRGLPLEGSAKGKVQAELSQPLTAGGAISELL
UniProt P54136: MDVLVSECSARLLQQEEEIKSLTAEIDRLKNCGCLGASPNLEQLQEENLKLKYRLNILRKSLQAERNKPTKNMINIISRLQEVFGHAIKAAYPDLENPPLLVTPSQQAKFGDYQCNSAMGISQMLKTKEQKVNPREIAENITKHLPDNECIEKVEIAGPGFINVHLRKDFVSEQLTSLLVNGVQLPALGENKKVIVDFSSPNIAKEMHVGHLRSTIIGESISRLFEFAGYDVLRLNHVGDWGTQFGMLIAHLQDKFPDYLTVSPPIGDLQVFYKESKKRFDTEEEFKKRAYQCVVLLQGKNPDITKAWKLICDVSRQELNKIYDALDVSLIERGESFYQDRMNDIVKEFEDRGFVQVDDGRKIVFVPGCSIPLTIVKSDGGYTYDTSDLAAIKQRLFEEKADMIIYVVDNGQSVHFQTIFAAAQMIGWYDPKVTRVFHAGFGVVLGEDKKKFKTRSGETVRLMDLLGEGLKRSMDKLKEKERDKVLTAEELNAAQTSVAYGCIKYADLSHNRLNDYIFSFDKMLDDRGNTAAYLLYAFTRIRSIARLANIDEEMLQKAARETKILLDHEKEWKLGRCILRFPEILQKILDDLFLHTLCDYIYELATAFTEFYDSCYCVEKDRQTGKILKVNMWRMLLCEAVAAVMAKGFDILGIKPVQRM
UniProt P46060: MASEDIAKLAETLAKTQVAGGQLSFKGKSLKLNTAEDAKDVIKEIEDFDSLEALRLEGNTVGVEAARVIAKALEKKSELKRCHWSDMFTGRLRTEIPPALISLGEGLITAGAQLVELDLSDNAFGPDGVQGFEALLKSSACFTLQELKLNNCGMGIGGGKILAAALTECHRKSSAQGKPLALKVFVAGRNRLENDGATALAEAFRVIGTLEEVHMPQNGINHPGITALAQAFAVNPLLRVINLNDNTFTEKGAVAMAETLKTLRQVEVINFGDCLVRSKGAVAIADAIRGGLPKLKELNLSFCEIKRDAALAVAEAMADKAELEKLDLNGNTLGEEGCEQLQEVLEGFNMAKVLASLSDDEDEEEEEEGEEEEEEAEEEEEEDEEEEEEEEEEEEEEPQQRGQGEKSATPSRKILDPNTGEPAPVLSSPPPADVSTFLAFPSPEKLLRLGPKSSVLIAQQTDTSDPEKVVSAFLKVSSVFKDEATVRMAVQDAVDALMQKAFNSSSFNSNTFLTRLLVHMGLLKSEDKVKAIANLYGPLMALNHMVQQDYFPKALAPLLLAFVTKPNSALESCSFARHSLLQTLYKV
UniProt P78406: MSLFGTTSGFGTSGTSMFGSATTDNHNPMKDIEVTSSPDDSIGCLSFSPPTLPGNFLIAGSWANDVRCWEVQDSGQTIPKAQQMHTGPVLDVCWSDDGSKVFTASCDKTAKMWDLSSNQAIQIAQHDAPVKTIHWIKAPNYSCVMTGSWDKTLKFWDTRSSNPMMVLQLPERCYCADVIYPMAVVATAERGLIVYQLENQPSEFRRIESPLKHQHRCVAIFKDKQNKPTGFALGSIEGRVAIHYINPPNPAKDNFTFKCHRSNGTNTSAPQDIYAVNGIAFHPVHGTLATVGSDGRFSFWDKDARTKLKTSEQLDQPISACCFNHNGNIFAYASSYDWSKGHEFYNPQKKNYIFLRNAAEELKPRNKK
UniProt Q9Y2P8: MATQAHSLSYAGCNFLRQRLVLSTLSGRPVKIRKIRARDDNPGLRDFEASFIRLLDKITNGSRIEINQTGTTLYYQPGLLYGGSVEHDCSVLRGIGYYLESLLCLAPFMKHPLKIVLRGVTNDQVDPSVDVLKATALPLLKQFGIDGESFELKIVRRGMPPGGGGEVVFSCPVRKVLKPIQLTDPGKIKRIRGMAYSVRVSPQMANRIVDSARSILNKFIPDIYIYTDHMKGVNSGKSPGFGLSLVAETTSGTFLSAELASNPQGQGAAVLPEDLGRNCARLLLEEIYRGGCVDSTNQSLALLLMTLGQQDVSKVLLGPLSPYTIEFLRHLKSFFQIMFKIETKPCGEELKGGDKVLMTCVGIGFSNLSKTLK
UniProt Q06330: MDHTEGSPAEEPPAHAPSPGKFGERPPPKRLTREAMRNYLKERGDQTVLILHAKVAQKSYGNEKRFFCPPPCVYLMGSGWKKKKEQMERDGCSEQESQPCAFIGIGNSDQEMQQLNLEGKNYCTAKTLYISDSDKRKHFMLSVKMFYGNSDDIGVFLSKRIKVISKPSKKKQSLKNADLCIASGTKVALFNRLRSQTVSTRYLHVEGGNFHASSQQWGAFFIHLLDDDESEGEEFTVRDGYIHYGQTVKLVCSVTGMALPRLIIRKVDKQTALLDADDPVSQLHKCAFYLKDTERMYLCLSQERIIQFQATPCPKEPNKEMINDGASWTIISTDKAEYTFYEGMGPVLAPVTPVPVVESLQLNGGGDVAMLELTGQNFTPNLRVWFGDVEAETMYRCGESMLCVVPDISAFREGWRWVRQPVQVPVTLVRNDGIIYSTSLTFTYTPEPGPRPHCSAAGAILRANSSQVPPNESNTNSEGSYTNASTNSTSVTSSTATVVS
UniProt Q96PM5: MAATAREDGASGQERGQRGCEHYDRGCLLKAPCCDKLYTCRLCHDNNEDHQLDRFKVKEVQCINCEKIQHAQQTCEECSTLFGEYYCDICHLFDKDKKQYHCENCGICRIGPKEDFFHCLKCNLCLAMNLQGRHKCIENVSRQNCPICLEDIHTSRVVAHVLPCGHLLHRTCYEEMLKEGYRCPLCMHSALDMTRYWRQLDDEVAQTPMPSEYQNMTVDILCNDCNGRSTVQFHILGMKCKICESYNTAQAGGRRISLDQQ
UniProt Q9NTZ6: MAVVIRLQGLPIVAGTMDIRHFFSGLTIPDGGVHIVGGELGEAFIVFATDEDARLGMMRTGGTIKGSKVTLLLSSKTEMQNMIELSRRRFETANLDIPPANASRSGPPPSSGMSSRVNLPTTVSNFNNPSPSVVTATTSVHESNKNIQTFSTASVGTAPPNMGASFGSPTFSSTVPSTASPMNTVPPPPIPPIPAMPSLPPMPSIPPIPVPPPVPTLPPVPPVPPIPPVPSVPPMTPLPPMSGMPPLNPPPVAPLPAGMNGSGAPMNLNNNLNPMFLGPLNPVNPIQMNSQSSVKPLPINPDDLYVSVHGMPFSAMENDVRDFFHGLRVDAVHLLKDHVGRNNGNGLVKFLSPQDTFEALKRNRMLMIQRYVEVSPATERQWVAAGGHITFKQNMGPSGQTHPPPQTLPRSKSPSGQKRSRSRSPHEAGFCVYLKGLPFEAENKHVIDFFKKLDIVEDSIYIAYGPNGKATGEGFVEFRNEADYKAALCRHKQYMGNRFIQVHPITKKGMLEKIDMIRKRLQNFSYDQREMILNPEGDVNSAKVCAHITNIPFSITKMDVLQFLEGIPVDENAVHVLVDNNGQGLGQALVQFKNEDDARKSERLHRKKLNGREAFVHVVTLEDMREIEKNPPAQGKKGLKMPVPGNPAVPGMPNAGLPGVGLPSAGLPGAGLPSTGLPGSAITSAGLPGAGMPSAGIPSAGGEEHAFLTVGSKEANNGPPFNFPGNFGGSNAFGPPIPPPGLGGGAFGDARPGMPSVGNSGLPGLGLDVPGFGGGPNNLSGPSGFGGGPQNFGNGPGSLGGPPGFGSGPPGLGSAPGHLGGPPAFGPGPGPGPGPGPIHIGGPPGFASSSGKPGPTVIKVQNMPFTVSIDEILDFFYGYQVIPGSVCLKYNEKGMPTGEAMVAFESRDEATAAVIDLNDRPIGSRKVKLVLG
UniProt Q7Z6E9: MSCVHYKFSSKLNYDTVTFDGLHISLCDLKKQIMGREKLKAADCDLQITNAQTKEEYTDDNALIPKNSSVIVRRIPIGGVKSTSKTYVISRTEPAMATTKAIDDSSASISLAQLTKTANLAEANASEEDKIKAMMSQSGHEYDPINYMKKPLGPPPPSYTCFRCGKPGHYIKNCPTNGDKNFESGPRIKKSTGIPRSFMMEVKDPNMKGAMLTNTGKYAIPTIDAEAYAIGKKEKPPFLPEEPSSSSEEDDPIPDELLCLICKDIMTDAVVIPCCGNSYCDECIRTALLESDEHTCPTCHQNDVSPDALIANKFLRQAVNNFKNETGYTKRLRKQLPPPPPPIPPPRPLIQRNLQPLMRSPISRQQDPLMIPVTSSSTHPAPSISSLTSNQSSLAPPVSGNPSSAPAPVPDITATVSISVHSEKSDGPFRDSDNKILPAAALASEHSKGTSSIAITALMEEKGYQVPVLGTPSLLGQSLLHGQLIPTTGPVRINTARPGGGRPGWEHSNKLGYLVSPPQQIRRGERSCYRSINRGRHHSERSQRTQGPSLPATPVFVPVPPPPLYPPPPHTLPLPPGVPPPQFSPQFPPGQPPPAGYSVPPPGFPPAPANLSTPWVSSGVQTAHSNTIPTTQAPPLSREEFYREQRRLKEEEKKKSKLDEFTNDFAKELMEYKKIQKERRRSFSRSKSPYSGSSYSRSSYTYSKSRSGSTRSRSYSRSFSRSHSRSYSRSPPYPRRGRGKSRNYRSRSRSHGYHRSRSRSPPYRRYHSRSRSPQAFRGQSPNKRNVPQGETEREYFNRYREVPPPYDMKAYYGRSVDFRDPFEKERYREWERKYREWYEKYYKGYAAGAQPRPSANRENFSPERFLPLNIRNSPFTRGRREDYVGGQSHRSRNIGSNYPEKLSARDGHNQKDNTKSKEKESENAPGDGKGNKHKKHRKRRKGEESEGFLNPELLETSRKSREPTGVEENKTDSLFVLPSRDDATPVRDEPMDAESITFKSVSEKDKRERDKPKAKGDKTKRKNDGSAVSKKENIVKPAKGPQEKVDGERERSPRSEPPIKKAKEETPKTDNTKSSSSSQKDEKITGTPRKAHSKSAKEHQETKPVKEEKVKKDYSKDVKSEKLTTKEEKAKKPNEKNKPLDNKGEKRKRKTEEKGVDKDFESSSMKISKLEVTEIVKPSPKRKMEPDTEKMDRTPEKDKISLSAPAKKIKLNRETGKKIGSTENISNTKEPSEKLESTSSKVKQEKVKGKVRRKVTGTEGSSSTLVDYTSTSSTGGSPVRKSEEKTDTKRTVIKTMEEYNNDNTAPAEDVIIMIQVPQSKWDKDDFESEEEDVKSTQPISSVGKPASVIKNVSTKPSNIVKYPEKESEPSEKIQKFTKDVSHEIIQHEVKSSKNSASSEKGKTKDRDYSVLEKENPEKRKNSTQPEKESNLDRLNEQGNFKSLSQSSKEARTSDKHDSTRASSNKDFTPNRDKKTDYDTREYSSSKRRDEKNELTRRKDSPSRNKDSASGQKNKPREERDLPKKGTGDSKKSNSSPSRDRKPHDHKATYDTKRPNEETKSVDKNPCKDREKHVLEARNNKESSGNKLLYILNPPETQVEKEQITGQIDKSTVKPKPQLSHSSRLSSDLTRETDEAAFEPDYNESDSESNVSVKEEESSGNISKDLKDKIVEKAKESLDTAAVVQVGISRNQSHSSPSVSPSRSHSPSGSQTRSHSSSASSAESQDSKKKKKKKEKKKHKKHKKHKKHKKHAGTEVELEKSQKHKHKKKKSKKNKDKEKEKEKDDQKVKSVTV

Compound: CC1Cc2ccccc2N1C(=O)C1CCCN(C1)C(=O)CCl (mixture of isomers) [TRIM25 ligand 11 (diastereomer mixture)]
Assay: probe-labelled cysteine peptide fold change vs DMSO (competition) (log2 fold change); higher = less target engagement (more negative = stronger competition)
Settings: THP-1, incubation time: 4 h
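Note: competitive chemoproteomic profiling in live THP-1 cells with an iodoacetamide desthiobiotin (IA-DTB) probe, comparing probe-labelled peptide intensities in compound-treated cells against DMSO-treated controls.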

| Target | probe-labelled cysteine peptide fold change (10 µM) | probe-labelled cysteine peptide fold change (50 µM) |
| --- | --- | --- |
| RANBP2_P49792_3032_EVADCFK (UniProt P49792) | 0.134 | 0.109 |
| RAVER1_Q8IY67_224_CLCVDRLPPGFNDVDALCR (UniProt Q8IY67) | -0.267 | -0.102 |
| RBM42_Q9BTD8_385_IFCGDLGNEVNDDILAR (UniProt Q9BTD8) | 0.0949 | 0.0534 |
| RBBP5_Q15291_233_EILTCGR (UniProt Q15291) | 0.0914 | 0.171 |
| RARS_P54136_32_NCGCLGASPNLEQLQEENLK (UniProt P54136) | -0.00374 | -0.0785 |
| RANGAP1_P46060_82_RCHWSDMFTGR (UniProt P46060) | 0.0798 | -0.0723 |
| RAPGEF6_Q8TEU7_105_GCDCLVLEPSEMIVVENAK (UniProt Q8TEU7) | 0.088 | -0.116 |
| RAE1_P78406_106_VFTASCDK (UniProt P78406) | -0.0316 | -0.0296 |
| RCL1_Q9Y2P8_292_GGCVDSTNQSLALLLMTLGQQDVSK (UniProt Q9Y2P8) | 0.137 | 0.0113 |
| RANGAP1_P46060_573_ALAPLLLAFVTKPNSALESCSFAR (UniProt P46060) | -0.308 | -0.131 |
| RBPJ_Q06330_286_CAFYLK (UniProt Q06330) | -0.0671 | 0.115 |
| RB1_P06400_278_IIEVLCK (UniProt P06400) | -0.0615 | 0.0476 |
| RCHY1_Q96PM5_172_TCYEEMLK (UniProt Q96PM5) | -0.0376 | -0.0114 |
| RAD54L2_Q9Y4B4_453_ALCRPGPDVVICDEGHR (UniProt Q9Y4B4) | -0.0529 | -0.116 |
| RARS_P54136_293_AYQCVVLLQGK (UniProt P54136) | 0.107 | 0.0772 |
| RAI1_Q7Z5J4_1516_MEELGLASQPPEGRPCQPQTR (UniProt Q7Z5J4) | -0.141 | -0.248 |
| RCHY1_Q96PM5_105_QYHCENCGICR (UniProt Q96PM5) | 0.0544 | -0.0674 |
| RBM12_Q9NTZ6_545_VCAHITNIPFSITK (UniProt Q9NTZ6) | -0.0344 | -0.113 |
| RBBP6_Q7Z6E9_283_DIMTDAVVIPCCGNSYCDECIR (UniProt Q7Z6E9) | 0.17 | -0.104 |
| RCHY1_Q96PM5_164_VVAHVLPCGHLLHR (UniProt Q96PM5) | -0.27 | 0.284 |
| RBPJ_Q06330_72_FFCPPPCVYLMGSGWK (UniProt Q06330) | 0.0316 | -0.154 |

Laid out differently: entries from further up
Target,probe-labelled cysteine peptide fold change (10 µM),probe-labelled cysteine peptide fold change (50 µM)
RBBP5_Q15291_233_EILTCGR (UniProt Q15291),0.0914,0.171
RBM12_Q9NTZ6_545_VCAHITNIPFSITK (UniProt Q9NTZ6),-0.0344,-0.113
